Test results: paper PMC7862700
This is a selection; strong and weak results do not stand in their true shares. At the low end of the ranking the order means little.

Amino acid sequences for entries named in this document (tags omitted). A change or cut given only in a name is not applied to a line headed by its entry.
UniProt Q9Y603: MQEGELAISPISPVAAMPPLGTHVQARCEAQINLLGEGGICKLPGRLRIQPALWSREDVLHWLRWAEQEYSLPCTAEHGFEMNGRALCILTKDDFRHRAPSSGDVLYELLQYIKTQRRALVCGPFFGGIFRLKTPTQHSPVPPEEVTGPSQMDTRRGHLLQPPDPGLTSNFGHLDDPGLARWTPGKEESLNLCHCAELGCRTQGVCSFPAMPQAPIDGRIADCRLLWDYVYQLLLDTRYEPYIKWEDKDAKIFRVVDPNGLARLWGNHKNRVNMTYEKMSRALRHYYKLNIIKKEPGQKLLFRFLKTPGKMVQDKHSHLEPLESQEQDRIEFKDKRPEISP
UniProt P41212: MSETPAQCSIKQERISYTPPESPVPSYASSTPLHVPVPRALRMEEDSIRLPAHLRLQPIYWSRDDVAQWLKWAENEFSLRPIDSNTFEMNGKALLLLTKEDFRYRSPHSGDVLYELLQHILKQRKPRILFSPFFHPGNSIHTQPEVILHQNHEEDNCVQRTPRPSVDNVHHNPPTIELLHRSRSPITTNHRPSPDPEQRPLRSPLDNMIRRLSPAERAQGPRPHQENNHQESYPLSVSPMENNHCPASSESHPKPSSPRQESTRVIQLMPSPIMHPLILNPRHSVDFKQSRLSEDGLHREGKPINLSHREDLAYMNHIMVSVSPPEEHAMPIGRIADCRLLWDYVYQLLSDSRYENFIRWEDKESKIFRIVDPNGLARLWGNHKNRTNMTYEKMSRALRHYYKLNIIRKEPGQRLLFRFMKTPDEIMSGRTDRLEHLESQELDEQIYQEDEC

The sequences below were run against ETV7 (UniProt Q9Y603) (assay: DAPPL (digital affinity profiling via proximity ligation, sequencing)). Conditions: 10 mM Tris-HCl pH 7.5, 50 mM NaCl, 1 mM DTT, 4% glycerol, room temperature, 30 min; GST-TFs on glutathione beads, 16-mer random dsDNA library, 0.1% …; high values mean tight binding; double strand, one strand shown; scale: fold enrichment (6-mer frequency, TF over GST control).

Row | Sequence | binding signal
1 | GCGCTA | 0.963
2 | TGGAGT | 0.564
3 | GGAAGG | 0.815
4 | GTGTCA | 0.915
5 | GCAGAC | 0.761
6 | CAAGCG | 0.887
7 | CGCATT | 0.745
8 | CGGTGG | 0.609
9 | GTGAAC | 0.794
10 | GGAGTC | 0.267
11 | GGGAGG | 0.389
12 | GGGTGG | 0.803
13 | GATAGG | 0.905
14 | GAACGC | 0.761
15 | CCGAGT | 0.888
16 | AGTCGG | 0.219
17 | GTTAGA | 0.7
18 | CGGGTA | 0.877
19 | CGGCGC | 0.721

Row | Sequence | binding signal
20 | GCCGGT | 0.733
21 | TAGGAG | 0.434
22 | ACGGCG | 0.853
23 | AGGGGT | 0.921
24 | GGTGGC | 0.797
25 | GTGCGA | 0.958
26 | TGAGTC | 0.245
27 | GACAAT | 0.998
28 | CCAGGG | 0.634
29 | AGCCCG | 0.884
30 | CAGGCG | 0.377
31 | GGGAAG | 0.952
32 | ACCGTG | 0.255
33 | TCCGTG | 0.513
34 | ACGAGG | 0.775
35 | CAGTGC | 0.805
36 | CGTAGA | 0.76
37 | GGTGAT | 0.719
38 | GCATAA | 0.851

These sequences were tested against ETV6 (UniProt P41212) in the same assay as above. Conditions: 10 mM Tris-HCl pH 7.5, 50 mM NaCl, 1 mM DTT, 4% glycerol, room temperature, 30 min; GST-TFs on glutathione beads, 16-mer random dsDNA library, 0.1% …; high values mean tight binding; double strand, one strand shown; scale: fold enrichment (6-mer frequency, TF over GST control).

Row | Sequence | binding signal
39 | TGGAGT | 0.491
40 | GGAAGG | 0.86
41 | GTGTCA | 0.857
42 | GCAGAC | 0.78
43 | CAAGCG | 0.875
44 | CGCATT | 0.767
45 | CGGTGG | 0.602
46 | GTGAAC | 0.816
47 | GGAGTC | 0.214
48 | GGGAGG | 0.334
49 | GGGTGG | 0.812
50 | GATAGG | 0.773
51 | GAACGC | 0.764
52 | CCGAGT | 0.933
53 | AGTCGG | 0.146
54 | GTTAGA | 0.726
55 | CGGGTA | 0.824
56 | CGGCGC | 0.727

Row | Sequence | binding signal
57 | GCCGGT | 0.706
58 | TAGGAG | 0.4
59 | ACGGCG | 0.849
60 | AGGGGT | 0.817
61 | GGTGGC | 0.649
62 | GTGCGA | 0.862
63 | TGAGTC | 0.199
64 | GACAAT | 0.937
65 | CCAGGG | 0.607
66 | AGCCCG | 0.855
67 | CAGGCG | 0.282
68 | ACCGTG | 0.208
69 | TCCGTG | 0.499
70 | ACGAGG | 0.766
71 | CAGTGC | 0.78
72 | CGTAGA | 0.71
73 | GGTGAT | 0.796
74 | GCATAA | 0.86
